According to publication PMC12439479:
No constants are given. Whether binding was seen depends on the method and setting. In cells and extracts the contact can be indirect. Some results given as binding are weak or reduced against the parent protein; the word gives no strength.

Chains of the proteins cited; added tags and fusions are not shown. Residues count along the entry.
UniProt Q9NP99, residues 21-234: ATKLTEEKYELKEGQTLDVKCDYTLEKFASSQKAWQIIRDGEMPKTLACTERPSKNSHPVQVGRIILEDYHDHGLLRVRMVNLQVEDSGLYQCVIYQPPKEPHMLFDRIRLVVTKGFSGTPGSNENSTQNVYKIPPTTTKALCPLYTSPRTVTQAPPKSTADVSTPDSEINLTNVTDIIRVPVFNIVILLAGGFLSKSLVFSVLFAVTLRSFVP
UniProt Q04206: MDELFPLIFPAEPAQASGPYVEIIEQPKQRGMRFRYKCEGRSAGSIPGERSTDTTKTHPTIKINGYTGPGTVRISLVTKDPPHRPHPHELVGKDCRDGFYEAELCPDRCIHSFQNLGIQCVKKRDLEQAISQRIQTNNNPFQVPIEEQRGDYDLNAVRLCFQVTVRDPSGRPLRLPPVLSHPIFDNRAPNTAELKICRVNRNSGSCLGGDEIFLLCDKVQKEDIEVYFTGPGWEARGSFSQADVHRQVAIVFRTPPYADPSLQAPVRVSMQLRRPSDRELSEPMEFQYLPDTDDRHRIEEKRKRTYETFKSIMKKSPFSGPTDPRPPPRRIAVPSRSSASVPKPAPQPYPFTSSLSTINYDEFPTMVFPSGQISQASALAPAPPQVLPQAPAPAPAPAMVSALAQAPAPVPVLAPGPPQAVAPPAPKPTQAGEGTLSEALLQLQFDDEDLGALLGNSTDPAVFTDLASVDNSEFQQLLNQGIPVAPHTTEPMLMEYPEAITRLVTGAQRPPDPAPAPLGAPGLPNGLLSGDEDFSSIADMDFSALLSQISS

Target: TREM1 (human (endogenous in HUVEC)) (UniProt Q9NP99)
Assay: co-IP; endothelial cell lysates in IP buffer incubated overnight at 4°C with anti-TREM1 antibody-conjugated magnetic beads, three washes, elution in SDS-PAGE buffer, immunoblotting; cells with NETs stimulation

binding: binds
Substance: NF-κB p65 (from UniProt Q04206 1-551)
